# Results as given in PubChem BioAssay (EPA / NIEHS).
# Chains of the proteins cited; added tags and fusions are not shown. Lines headed by an entry give the natural chain unless they say otherwise; changes in a name come on top.
# UniProt Q16656: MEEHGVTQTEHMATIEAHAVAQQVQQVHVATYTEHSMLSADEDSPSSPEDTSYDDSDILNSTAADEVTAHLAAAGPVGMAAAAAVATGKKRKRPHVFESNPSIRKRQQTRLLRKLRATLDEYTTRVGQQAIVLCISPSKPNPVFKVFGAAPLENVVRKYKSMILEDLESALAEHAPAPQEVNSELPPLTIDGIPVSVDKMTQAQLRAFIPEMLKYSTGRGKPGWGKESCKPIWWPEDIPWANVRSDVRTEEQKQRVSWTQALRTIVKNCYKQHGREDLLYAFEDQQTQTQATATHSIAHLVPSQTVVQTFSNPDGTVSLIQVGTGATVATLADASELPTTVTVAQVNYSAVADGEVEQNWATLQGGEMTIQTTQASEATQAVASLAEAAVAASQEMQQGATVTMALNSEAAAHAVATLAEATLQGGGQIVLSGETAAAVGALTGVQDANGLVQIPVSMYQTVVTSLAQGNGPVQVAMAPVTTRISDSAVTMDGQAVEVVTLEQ
# UniProt P49884, whole entry, looked up: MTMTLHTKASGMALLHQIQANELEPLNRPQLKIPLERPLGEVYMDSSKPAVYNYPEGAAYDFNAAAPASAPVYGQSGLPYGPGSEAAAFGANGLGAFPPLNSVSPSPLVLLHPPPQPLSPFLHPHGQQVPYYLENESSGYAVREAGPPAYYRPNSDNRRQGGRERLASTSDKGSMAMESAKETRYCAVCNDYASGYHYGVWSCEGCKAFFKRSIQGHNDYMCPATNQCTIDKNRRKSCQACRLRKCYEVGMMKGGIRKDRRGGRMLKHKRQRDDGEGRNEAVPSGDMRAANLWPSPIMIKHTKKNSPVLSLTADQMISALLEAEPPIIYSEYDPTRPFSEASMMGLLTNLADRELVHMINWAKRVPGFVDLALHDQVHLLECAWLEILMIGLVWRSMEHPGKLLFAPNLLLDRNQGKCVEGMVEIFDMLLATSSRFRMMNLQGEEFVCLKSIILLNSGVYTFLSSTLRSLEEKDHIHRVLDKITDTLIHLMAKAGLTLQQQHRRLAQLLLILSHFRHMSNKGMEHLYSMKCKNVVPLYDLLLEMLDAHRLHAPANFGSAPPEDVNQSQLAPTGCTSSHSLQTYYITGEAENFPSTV
# UniProt P03372, whole entry, looked up: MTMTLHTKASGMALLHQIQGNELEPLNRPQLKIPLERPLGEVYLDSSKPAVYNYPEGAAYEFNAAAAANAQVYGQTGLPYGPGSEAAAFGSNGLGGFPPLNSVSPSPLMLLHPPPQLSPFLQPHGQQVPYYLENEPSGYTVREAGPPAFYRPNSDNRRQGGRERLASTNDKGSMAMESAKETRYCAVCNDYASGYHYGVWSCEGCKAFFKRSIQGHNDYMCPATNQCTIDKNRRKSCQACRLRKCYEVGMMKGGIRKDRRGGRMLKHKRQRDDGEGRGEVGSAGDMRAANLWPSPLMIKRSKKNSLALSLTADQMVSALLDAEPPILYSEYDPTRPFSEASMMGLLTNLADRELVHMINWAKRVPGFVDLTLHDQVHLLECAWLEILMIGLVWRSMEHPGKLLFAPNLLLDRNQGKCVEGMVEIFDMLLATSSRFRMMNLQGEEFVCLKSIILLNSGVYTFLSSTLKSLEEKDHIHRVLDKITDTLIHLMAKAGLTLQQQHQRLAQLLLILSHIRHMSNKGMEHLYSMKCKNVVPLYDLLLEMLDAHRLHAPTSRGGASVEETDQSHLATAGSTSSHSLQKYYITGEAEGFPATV
# UniProt Q96RI1: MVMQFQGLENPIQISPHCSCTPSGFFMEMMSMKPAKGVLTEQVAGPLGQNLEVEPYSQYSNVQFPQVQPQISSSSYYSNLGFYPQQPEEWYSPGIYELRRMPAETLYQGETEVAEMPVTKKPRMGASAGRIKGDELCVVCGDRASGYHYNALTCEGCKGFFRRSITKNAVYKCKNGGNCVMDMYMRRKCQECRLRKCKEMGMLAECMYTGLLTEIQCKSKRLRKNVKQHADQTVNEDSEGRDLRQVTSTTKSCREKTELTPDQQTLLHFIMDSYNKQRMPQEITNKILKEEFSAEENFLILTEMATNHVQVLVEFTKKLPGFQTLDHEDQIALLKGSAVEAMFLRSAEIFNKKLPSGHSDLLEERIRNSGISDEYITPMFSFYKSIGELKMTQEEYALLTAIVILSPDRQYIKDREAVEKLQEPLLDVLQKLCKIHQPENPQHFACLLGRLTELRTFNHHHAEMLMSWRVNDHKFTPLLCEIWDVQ
# UniProt P43354, whole entry, looked up: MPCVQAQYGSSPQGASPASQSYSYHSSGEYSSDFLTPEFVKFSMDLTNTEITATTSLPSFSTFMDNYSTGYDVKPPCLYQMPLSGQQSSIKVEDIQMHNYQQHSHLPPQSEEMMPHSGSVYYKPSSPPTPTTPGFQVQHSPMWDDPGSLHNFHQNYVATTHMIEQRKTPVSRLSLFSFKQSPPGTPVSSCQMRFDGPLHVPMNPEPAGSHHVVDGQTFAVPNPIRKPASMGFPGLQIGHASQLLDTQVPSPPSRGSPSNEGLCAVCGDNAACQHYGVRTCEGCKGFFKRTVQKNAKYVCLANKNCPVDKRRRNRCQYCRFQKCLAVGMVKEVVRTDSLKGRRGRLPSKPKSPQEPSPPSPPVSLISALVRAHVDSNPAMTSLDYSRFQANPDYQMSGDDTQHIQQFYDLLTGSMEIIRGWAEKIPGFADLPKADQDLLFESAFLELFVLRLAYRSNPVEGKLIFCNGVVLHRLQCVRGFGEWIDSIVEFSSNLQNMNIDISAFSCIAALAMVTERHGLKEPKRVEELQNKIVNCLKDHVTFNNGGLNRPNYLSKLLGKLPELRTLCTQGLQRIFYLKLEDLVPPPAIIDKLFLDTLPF
# UniProt O97775: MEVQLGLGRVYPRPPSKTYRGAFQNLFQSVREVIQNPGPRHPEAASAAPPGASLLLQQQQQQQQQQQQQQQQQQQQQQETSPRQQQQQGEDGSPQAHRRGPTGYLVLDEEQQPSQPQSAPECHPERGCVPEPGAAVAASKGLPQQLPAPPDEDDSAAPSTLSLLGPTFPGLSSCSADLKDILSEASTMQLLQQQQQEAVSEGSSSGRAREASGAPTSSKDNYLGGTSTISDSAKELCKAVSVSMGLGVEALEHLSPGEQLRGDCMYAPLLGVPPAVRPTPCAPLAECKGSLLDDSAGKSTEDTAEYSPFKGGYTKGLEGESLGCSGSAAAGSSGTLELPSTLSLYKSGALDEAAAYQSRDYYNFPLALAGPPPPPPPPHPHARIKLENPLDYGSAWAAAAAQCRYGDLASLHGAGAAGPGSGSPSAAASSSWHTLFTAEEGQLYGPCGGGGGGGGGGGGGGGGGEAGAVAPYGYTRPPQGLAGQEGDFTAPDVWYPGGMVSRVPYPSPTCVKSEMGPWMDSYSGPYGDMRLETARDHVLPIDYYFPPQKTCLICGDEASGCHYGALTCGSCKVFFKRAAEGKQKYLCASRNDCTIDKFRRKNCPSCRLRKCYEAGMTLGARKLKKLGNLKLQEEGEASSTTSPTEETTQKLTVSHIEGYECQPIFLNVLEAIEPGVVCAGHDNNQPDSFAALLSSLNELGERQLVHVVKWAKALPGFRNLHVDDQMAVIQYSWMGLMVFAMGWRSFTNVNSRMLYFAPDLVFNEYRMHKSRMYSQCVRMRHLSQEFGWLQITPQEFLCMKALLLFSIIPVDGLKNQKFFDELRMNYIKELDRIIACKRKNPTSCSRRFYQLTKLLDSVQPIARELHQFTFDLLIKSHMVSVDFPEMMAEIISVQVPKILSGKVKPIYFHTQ
# UniProt O75469: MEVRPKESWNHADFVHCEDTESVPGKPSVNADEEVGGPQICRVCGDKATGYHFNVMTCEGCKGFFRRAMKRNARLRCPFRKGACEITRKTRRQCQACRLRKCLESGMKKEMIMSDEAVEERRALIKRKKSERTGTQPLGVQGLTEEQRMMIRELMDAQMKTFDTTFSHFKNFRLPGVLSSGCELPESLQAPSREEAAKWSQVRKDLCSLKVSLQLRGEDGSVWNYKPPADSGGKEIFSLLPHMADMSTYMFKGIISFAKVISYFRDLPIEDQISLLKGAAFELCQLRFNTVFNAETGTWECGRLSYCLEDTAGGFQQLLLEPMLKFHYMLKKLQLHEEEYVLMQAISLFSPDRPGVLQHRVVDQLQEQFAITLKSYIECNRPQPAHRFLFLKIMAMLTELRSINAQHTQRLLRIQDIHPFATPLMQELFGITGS
# UniProt P37231: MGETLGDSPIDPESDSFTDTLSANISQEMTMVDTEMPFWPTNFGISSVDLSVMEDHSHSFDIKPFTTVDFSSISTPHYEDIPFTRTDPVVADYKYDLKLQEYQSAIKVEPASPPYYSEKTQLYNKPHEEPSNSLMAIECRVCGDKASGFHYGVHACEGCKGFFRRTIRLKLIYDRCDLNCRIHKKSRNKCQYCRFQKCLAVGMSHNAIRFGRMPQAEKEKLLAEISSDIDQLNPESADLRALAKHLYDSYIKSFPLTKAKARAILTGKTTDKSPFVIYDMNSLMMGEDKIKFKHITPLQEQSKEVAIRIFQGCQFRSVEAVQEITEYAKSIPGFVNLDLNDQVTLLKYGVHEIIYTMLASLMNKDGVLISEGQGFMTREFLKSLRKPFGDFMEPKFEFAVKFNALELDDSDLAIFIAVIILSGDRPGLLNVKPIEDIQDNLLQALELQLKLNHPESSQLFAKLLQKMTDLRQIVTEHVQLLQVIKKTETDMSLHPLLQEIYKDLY
# For some of these results: The hits were mostly taken out for another list; the other results follow. Results filed as inconclusive are left out. The list shows a part of the results, in another mix than the full data. Some compounds were tested as several samples or in several runs, with calls that do not always agree. Calls of active or inactive are those of the source. How the source made its calls, unless noted: active means hit-call score of the fitted dose curve at least 0.9, where 1 is the maximum; inactive means score below 0.9.
# Assays:
# [1] = target: Nuclear respiratory factor 1 (Homo sapiens) (UniProt Q16656); experiment: ATG_NRF1_CIS: Attagene CIS-FACTORIAL HepG2 Assay for human Nuclear Respiratory Factor 1 (NRF1) Orphan Gene (AID 2282987); conditions: HepG2 NRF1 cis-element reporter, Attagene multiplex; actives raise or lower the signal
# Outline: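 Using DMSO as baseline, gain- or loss-of-signal was fitted for reporter mRNA levels in HepG2 cells transiently transfected with cis-regulated reporter units. Samples were taken 24 h after dosing and read by RT-PCR with capillary electrophoresis.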
# [2] = ATG_NFI_CIS: Attagene CIS-FACTORIAL HepG2 Assay for human Nuclear Factor I (NFI) (AID 2282989); conditions: HepG2 cis-regulatory reporter, NFI response element transcription; actives raise or lower the signal
# Outline: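 HepG2 cells transiently transfected with cis-element-driven multiplexed reporter transcription units, dosed for 24 h. Reporter mRNA quantified by RT-PCR, fluorescent labelling, HpaI digestion and capillary electrophoresis; bidirectional fit versus DMSO baseline.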
# [3] = ATG_NRF2_ARE_CIS: Attagene CIS-FACTORIAL HepG2 Assay for human Nuclear Factor Erythroid 2 Related Factor 2 (NFR2) response to Antioxidant Response Elements (ARE) (AID 2282992); conditions: HepG2 Attagene ARE/NRF2 reporter, transcription factor activity; actives raise or lower the signal
# Outline: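 Readout: reporter mRNA quantified by RT-PCR plus FAM-labelled primer extension, HpaI digestion and capillary electrophoresis, 24 h after dosing transfected HepG2 cells. Gain or loss of signal is fitted bidirectionally against DMSO baseline.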
# [4] = target: bovine Estrogen Receptor (ER), ESR1 (gene 407238) (UniProt P49884); experiment: NVS_NR_bER: NovaScreen (NVS) Nuclear Receptor Binding Assay for bovine Estrogen Receptor (ER) (AID 2283345; active means hit-call score of the fitted dose curve at least 0.9, where 1 is the maximum;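 further: actives lower the bound radioligand count which means they displace the ER ligand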)
# Outline: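 Scintillation counting of displaced radioligand gave the readout; bovine uterine membrane extract supplied the receptor. Measured 18 h post-dose, normalized to DMSO baseline. Single 25 uM duplicate screen preceded concentration-response follow-up.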
# [5] = target: Estrogen receptor (Homo sapiens) (UniProt P03372); experiment: NVS_NR_hER: NovaScreen (NVS) Nuclear Receptor Binding Assay for human Estrogen Receptor (ER) (AID 2283348; active means hit-call score of the fitted dose curve at least 0.9, where 1 is the maximum)
# Outline: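 Cell-free MCF7-derived ER preparation, specific radioligand displaced by test compound, read by scintillation counting 18 h post-dosing. Duplicate single-point 25 uM screen, then concentration-response confirmation; DMSO baseline.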
# [6] = target: Bile acid receptor (Homo sapiens) (UniProt Q96RI1); experiment: ATG_IR1_CIS: Attagene CIS-FACTORIAL HepG2 Assay for human Nuclear Receptor Subfamily 1 Group H Member 4 (NR1H4), IR1 submotif (AID 2282946); conditions: IR1 reporter transcription, actives raise or lower the signal
# Outline: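 HepG2 cells transiently transfected with multiplexed cis-element reporter units read endogenous transcription factor activity. After 24 h compound exposure, reporter mRNA was quantified by RT-PCR, fluorescent labelling, HpaI digestion and capillary electrophoresis; bidirectional fitting versus DMSO baseline.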
# [7] = target: Nuclear receptor subfamily 4 group A member 2 (Homo sapiens) (UniProt P43354); experiment: ATG_NURR1_TRANS: Attagene TRANS-FACTORIAL HepG2 Assay for human Nuclear Receptor Related Protein 1 (NURR1) (AID 2282985; active means hit-call score of the fitted dose curve at least 0.9, where 1 is the maximum); conditions: HepG2 Attagene TRANS reporter, mRNA readout
# Outline: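 Reporter transcript induction, measured by RT-PCR with fluorescent labelling, HpaI digestion and capillary electrophoresis, after 24 hr dosing of human HepG2 cells transiently expressing an exogenous NR-Gal4 fusion with GAL4-UAS-driven reporters; DMSO as baseline.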
# [8] = target: chimpanzee Androgen Receptor (AR), AR (gene 747460) (UniProt O97775); experiment: NVS_NR_cAR: NovaScreen (NVS) Nuclear Receptor Binding Assay for chimpanzee Androgen Receptor (AR) (AID 2283346; active means hit-call score of the fitted dose curve at least 0.9, where 1 is the maximum;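 further: radioligand displacement from AR measured by scintillation counting in a cell-free assay; a loss of bound radioligand signal versus DMSO counts as binding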)
# Outline: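 Cell-free competition binding with insect-cell (Sf9/Sf21) extracted chimpanzee AR; scintillation signal from lysate at 72 h. Screened in duplicate at 25 uM, then concentration-response for actives; fitting relative to DMSO.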
# [9] = target: Nuclear receptor subfamily 1 group I member 2 (Homo sapiens) (UniProt O75469); experiment: NVS_NR_hPXR: NovaScreen (NVS) Nuclear Receptor Binding Assay for human Pregnane X Receptor (PXR) (AID 2283365; active means hit-call score of the fitted dose curve at least 0.9, where 1 is the maximum;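 further: a drop in FRET signal versus DMSO baseline means the compound binds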)
# Outline: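 Cell-free binding assay with extracted human PXR protein, read by TR-FRET 2 h after dosing; loss of signal relative to DMSO baseline indicates binding. Primary screen at 25 uM in duplicate, actives retested in concentration series.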
# [10] = target: Peroxisome proliferator-activated receptor gamma (Homo sapiens) (UniProt P37231); experiment: NVS_NR_hPPARg: NovaScreen (NVS) Nuclear Receptor Binding Assay for human Peroxisome Proliferator-activated Receptor gamma (PPARg) (AID 2283370; active means hit-call score of the fitted dose curve at least 0.9, where 1 is the maximum)
# Outline: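 Cell-free binding to extracted PPARg protein, read by fluorescence polarization 2 h after dosing; loss of signal relative to DMSO baseline marks displacement. Primary screen in duplicate at 25 uM, actives retested in concentration series.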
compound,measurement,setting,value
CN1[C@@H]2CC(OC(=O)[C@H](CO)c3ccccc3)C[C@H]1[C@@H]1O[C@@H]12 (stereo partly specified),outcome,[1],inactive
same,outcome,[2],inactive
same,outcome,[3],inactive
same,outcome,[4],inactive
same,outcome,[5],inactive
O=C(O)COCCN1CCN(C(c2ccccc2)c2ccc(Cl)cc2)CC1 (stereo unspecified),outcome,[6],inactive
same,outcome,[7],inactive
same,outcome,[1],inactive
same,outcome,[2],inactive
same,outcome,[3],inactive
CC(C)c1c(C(=O)Nc2ccccc2)c(-c2ccccc2)c(-c2ccc(F)cc2)n1CC[C@@H](O)C[C@@H](O)CC(=O)O,outcome,[7],inactive
same,AC50,[1],active: 114 µM
same,outcome,[1],inactive
same,AC50,[8],active: 6.78 µM
same,AC50,[9],active: 4.84 µM
same,outcome,[10],inactive
